Results are given in words; binding and its absence hold for the method and conditions named. In cells and extracts the contact can be indirect. A yes stands for co-enrichment or nearness to the bait. Other partners may have been found. For some assays here: A no says only that the protein was not detected with the bait. For some assays here: Where a sequence is shown, tags or fusion partners need not be part of it.
Legend:
[1] = biological target: MYC-BirA-SMN (human), Q16637; assay: proximity labelling; BioID in stably transduced HEK293T (BirA, BirA-SMN, BirA-SMN Y109C), streptavidin-Sepharose, label-free quantitative mass spectrometry, triplicate; BirA-SMN compared with BirA alone and with BirA-SMN Y109C; details: remark: other sources report otherwise
MYC-BirA-SMN (human) [2] = biological target: MYC-BirA-SMN (human) (UniProt Q16637); assay: as above
MYC-BirA-SMN (human) [3] = biological target: MYC-BirA-SMN (human) (UniProt Q16637); assay: proximity labelling; BioID: FLAG-tagged candidates co-expressed with MYC-BirA or MYC-BirA-SMN in HEK293T, doxycycline and biotin; biotinylated proteins purified on streptavidin-Sepharose, immunoblot

Protein sequences, listed by entry. Tags and fused reporters are not part of them.
UniProt Q16637: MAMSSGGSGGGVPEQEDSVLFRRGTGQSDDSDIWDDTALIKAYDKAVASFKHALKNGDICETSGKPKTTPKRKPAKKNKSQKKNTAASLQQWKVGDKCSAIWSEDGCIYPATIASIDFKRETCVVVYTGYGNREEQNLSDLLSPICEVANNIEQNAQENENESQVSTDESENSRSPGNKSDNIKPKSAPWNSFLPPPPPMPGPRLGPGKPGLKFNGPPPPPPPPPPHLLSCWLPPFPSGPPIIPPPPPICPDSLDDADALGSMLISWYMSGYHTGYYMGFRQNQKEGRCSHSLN

Binder	binding (MYC-BirA-SMN (human) [2])	also measured
GEMIN4, P57678 1-1058 (protein) MDLGPLNICEEMTILHGGFLLAEQLFHPKALAELTKSDWERVGRPIVEALREISSAAAHSQPFAWKKKALIIIWAKVLQPHPVTPSDTETRWQEDLFFSVGNMIPTINHTILFELLKSLEASGLFIQLLMALPTTICHAELERFLEHVTVDTSAEDVAFFLDVWWEVMKHKGHPQDPLLSQFSAMAHKYLPALDEFPHPPKRLRSDPDACPTMPLLAMLLRGLTQIQSRILGPGRKCCALANLADMLTVFALTEDDPQEVSATVYLDKLATVISVWNSDTQNPYHQQALAEKVKEAERDVSLTSLAKLPSETIFVGCEFLHHLLREWGEELQAVLRSSQGTSYDSYRLCDSLTSFSQNATLYLNRTSLSKEDRQVVSELAECVRDFLRKTSTVLKNRALEDITASIAMAVIQQKMDRHMEVCYIFASEKKWAFSDEWVACLGSNRALFRQPDLVLRLLETVIDVSTADRAIPESQIRQVIHLILECYADLSLPGKNKVLAGILRSWGRKGLSEKLLAYVEGFQEDLNTTFNQLTQSASEQGLAKAVASVARLVIVHPEVTVKKMCSLAVVNLGTHKFLAQILTAFPALRFVEEQGPNSSATFMVSCLKETVWMKFSTPKEEKQFLELLNCLMSPVKPQGIPVAALLEPDEVLKEFVLPFLRLDVEEVDLSLRIFIQTLEANACREEYWLQTCSPFPLLFSLCQLLDRFSKYWQLPKEKRCLSLDRKDLAIHILELLCEIVSANAETFSPDVWIKSLSWLHRKLEQLDWTVGLRLKSFFEGHFKCEVPATLFEICKLSEDEWTSQAHPGYGAGTGLLAWMECCCVSSGISERMLSLLVVDVGNPEEVRLFSKGFLVALVQVMPWCSPQEWQRLHQLTRRLLEKQLLHVPYSLEYIQFVPLLNLKPFAQELQLSVLFLRTFQFLCSHSCRDWLPLEGWNHVVKLLCGSLTRLLDSVRAIQAAGPWVQGPEQDLTQEALFVYTQVFCHALHIMAMLHPEVCEPLYVLALETLTCYETLSKTNPSVSSLLQRAHEQRFLKSIAEGIGPEERRQTLLQKMSSF	–	binding [1]: binds
GEMIN8 (protein, UniProt Q9NWZ8 1-242) MAAVKASTSKATRPWYSHPVYARYWQHYHQAMAWMQSHHNAYRKAVESCFNLPWYLPSALLPQSSYDNEAAYPQSFYDHHVAWQDYPCSSSHFRRSGQHPRYSSRIQASTKEDQALSKEEEMETESDAEVECDLSNMEITEELRQYFAETERHREERRRQQQLDAERLDSYVNADHDLYCNTRRSVEAPTERPGERRQAEMKRLYGDSAAKIQAMEAAVQLSFDKHCDRKQPKYWPVIPLKF	binds	–
FIBRILLARIN (protein, UniProt P22087 1-321) MKPGFSPRGGGFGGRGGFGDRGGRGGRGGFGGGRGRGGGFRGRGRGGGGGGGGGGGGGRGGGGFHSGGNRGRGRGGKRGNQSGKNVMVEPHRHEGVFICRGKEDALVTKNLVPGESVYGEKRVSISEGDDKIEYRAWNPFRSKLAAAILGGVDQIHIKPGAKVLYLGAASGTTVSHVSDIVGPDGLVYAVEFSHRSGRDLINLAKKRTNIIPVIEDARHPHKYRMLIAMVDVIFADVAQPDQTRIVALNAHTFLRNGGHFVISIKANCIDSTASAEAVFASEVKKMQQENMKPQEQLTLEPYERDHAVVVGVYRPPPKVKN	binds	–
AVEN (protein, UniProt Q9NQS1 1-362) MQAERGARGGRGRRPGRGRPGGDRHSERPGAAAAVARGGGGGGGGDGGGRRGRGRGRGFRGARGGRGGGGAPRGSRREPGGWGAGASAPVEDDSDAETYGEENDEQGNYSKRKIVSNWDRYQDIEKEVNNESGESQRGTDFSVLLSSAGDSFSQFRFAEEKEWDSEASCPKQNSAFYVDSELLVRALQELPLCLRLNVAAELVQGTVPLEVPQVKPKRTDDGKGLGMQLKGPLGPGGRGPIFELKSVAAGCPVLLGKDNPSPGPSRDSQKPTSPLQSAGDHLEEELDLLLNLDAPIKEGDNILPDQTSQDLKSKEDGEVVQEEEVCAKPSVTEEKNMEPEQPSTSKNVTEEELEDWLDSMIS	binds	–
GIGYF2 (protein, UniProt Q6Y7W6 1-1299) MAAETQTLNFGPEWLRALSSGGSITSPPLSPALPKYKLADYRYGREEMLALFLKDNKIPSDLLDKEFLPILQEEPLPPLALVPFTEEEQRNFSMSVNSAAVLRLTGRGGGGTVVGAPRGRSSSRGRGRGRGECGFYQRSFDEVEGVFGRGGGREMHRSQSWEERGDRRFEKPGRKDVGRPNFEEGGPTSVGRKHEFIRSESENWRIFREEQNGEDEDGGWRLAGSRRDGERWRPHSPDGPRSAGWREHMERRRRFEFDFRDRDDERGYRRVRSGSGSIDDDRDSLPEWCLEDAEEEMGTFDSSGAFLSLKKVQKEPIPEEQEMDFRPVDEGEECSDSEGSHNEEAKEPDKTNKKEGEKTDRVGVEASEETPQTSSSSARPGTPSDHQSQEASQFERKDEPKTEQTEKAEEETRMENSLPAKVPSRGDEMVADVQQPLSQIPSDTASPLLILPPPVPNPSPTLRPVETPVVGAPGMGSVSTEPDDEEGLKHLEQQAEKMVAYLQDSALDDERLASKLQEHRAKGVSIPLMHEAMQKWYYKDPQGEIQGPFNNQEMAEWFQAGYFTMSLLVKRACDESFQPLGDIMKMWGRVPFSPGPAPPPHMGELDQERLTRQQELTALYQMQHLQYQQFLIQQQYAQVLAQQQKAALSSQQQQQLALLLQQFQTLKMRISDQNIIPSVTRSVSVPDTGSIWELQPTASQPTVWEGGSVWDLPLDTTTPGPALEQLQQLEKAKAAKLEQERREAEMRAKREEEERKRQEELRRQQEEILRRQQEEERKRREEEELARRKQEEALRRQREQEIALRRQREEEERQQQEEALRRLEERRREEEERRKQEELLRKQEEEAAKWAREEEEAQRRLEENRLRMEEEAARLRHEEEERKRKELEVQRQKELMRQRQQQQEALRRLQQQQQQQQLAQMKLPSSSTWGQQSNTTACQSQATLSLAEIQKLEEERERQLREEQRRQQRELMKALQQQQQQQQQKLSGWGNVSKPSGTTKSLLEIQQEEARQMQKQQQQQQQHQQPNRARNNTHSNLHTSIGNSVWGSINTGPPNQWASDLVSSIWSNADTKNSNMGFWDDAVKEVGPRNSTNKNKNNASLSKSVGVSNRQNKKVEEEEKLLKLFQGVNKAQDGFTQWCEQMLHALNTANNLDVPTFVSFLKEVESPYEVHDYIRAYLGDTSEAKEFAKQFLERRAKQKANQQRQQQQLPQQQQQQPPQQPPQQPQQQDSVWGMNHSTLHSVFQTNQSNNQQSNFEAVQSGKKKKKQKMVRADPSLLGFSVNASSERLNMGEIETLDDY	binds	–
ZNF598 (protein, UniProt Q86UK7 1-904) MAAAGGAEGRRAALEAAAAAAPERGGGSCVLCCGDLEATALGRCDHPVCYRCSTKMRVLCEQRYCAVCREELRQVVFGKKLPAFATIPIHQLQHEKKYDIYFADGKVYALYRQLLQHECPRCPELPPFSLFGDLEQHMRRQHELFCCRLCLQHLQIFTYERKWYSRKDLARHRMQGDPDDTSHRGHPLCKFCDERYLDNDELLKHLRRDHYFCHFCDSDGAQDYYSDYAYLREHFREKHFLCEEGRCSTEQFTHAFRTEIDLKAHRTACHSRSRAEARQNRHIDLQFSYAPRHSRRNEGVVGGEDYEEVDRYSRQGRVARAGTRGAQQSRRGSWRYKREEEDREVAAAVRASVAAQQQEEARRSEDQEEGGRPKKEEAAARGPEDPRGPRRSPRTQGEGPGPKETSTNGPVSQEAFSVTGPAAPGCVGVPGALPPPSPKLKDEDFPSLSASTSSSCSTAATPGPVGLALPYAIPARGRSAFQEEDFPALVSSVPKPGTAPTSLVSAWNSSSSSKKVAQPPLSAQATGSGQPTRKAGKGSRGGRKGGPPFTQEEEEDGGPALQELLSTRPTGSVSSTLGLASIQPSKVGKKKKVGSEKPGTTLPQPPPATCPPGALQAPEAPASRAEGPVAVVVNGHTEGPAPARSAPKEPPGLPRPLGSFPCPTPQEDFPALGGPCPPRMPPPPGFSAVVLLKGTPPPPPPGLVPPISKPPPGFSGLLPSPHPACVPSPATTTTTKAPRLLPAPRAYLVPENFRERNLQLIQSIRDFLQSDEARFSEFKSHSGEFRQGLISAAQYYKSCRDLLGENFQKVFNELLVLLPDTAKQQELLSAHTDFCNREKPLSTKSKKNKKSAWQATTQQAGLDCRVCPTCQQVLAHGDASSHQALHAARDDDFPSLQAIARIIT	binds	–
PATL1 (protein, UniProt Q86TB9 1-770) MFRYESLEDCPLDEDEDAFQGLGEEDEEIDQFNDDTFGSGAVDDDWQEAHERLAELEEKLPVAVNEQTGNGERDEMDLLGDHEENLAERLSKMVIENELEDPAIMRAVQTRPVLQPQPGSLNSSIWDGSEVLRRIRGPLLAQEMPTVSVLEYALPQRPPQGPEDDRDLSERALPRRSTSPIIGSPPVRAVPIGTPPKQMAVPSFTQQILCPKPVHVRPPMPPRYPAPYGERMSPNQLCSVPNSSLLGHPFPPSVPPVLSPLQRAQLLGGAQLQPGRMSPSQFARVPGFVGSPLAAMNPKLLQGRVGQMLPPAPGFRAFFSAPPSATPPPQQHPPGPGPHLQNLRSQAPMFRPDTTHLHPQHRRLLHQRQQQNRSQHRNLNGAGDRGSHRSSHQDHLRKDPYANLMLQREKDWVSKIQMMQLQSTDPYLDDFYYQNYFEKLEKLSAAEEIQGDGPKKERTKLITPQVAKLEHAYKPVQFEGSLGKLTVSSVNNPRKMIDAVVTSRSEDDETKEKQVRDKRRKTLVIIEKTYSLLLDVEDYERRYLLSLEEERPALMDDRKHKICSMYDNLRGKLPGQERPSDDHFVQIMCIRKGKRMVARILPFLSTEQAADILMTTARNLPFLIKKDAQDEVLPCLLSPFSLLLYHLPSVSITSLLRQLMNLPQSAATPALSNPHLTAVLQNKFGLSLLLILLSRGEDLQSSDPATESTQNNQWTEVMFMATRELLRIPQAALAKPISIPTNLVSLFSRYVDRQKLNLLETKLQLVQGIR	binds	–
FLAG-CSRP2 (protein, UniProt Q16527 1-193) MPVWGGGNKCGACGRTVYHAEEVQCDGRSFHRCCFLCMVCRKNLDSTTVAIHDEEIYCKSCYGKKYGPKGYGYGQGAGTLNMDRGERLGIKPESVQPHRPTTNPNTSKFAQKYGGAEKCSRCGDSVYAAEKIIGAGKPWHKNCFRCAKCGKSLESTTLTEKEGEIYCKGCYAKNFGPKGFGYGQGAGALVHAQ	–	binding (MYC-BirA-SMN (human) [3]): no binding

Reference: paper PMC9684302
